In PubChem BioAssay AID720540 (National Center for Advancing Translational Sciences (NCATS), 2013):
About 460 (35%) of roughly 1,300 compounds were called active. The shares of active, inactive and inconclusive entries below differ from those in the screen. The call rests on the fitted dose curve; in most records, active means well fitted inhibition curve with a large enough effect; inconclusive means small, poorly fitted or top-dose-only effect; inactive means flat fitted curve, though single readings scatter. Potencies of inconclusive entries are doubtful fits and often do not repeat.

Protein sequences, listed by entry. Tags and fused reporters are not part of them. Lines headed by an entry give the natural chain unless they say otherwise; changes in a name come on top.
UniProt O00167: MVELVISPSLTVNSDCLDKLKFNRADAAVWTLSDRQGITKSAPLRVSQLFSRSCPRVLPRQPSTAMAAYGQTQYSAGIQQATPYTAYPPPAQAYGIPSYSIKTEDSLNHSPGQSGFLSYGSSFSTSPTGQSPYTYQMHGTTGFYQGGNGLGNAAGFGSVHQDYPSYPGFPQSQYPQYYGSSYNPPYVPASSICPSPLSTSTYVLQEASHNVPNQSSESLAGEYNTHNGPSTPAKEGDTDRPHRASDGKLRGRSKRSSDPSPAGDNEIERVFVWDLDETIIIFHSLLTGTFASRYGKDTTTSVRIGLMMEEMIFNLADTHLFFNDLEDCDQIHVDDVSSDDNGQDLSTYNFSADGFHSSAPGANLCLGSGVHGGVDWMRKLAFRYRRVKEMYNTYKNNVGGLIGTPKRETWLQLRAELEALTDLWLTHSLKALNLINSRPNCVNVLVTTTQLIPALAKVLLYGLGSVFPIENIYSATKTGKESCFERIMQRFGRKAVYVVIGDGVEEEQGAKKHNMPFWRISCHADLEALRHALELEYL

target: Protein phosphatase EYA2 (Homo sapiens) (UniProt O00167); assay: qHTS for Inhibitors of the Phosphatase Activity of Eya2: Confirmatory Assay for Cherry-picked Compounds; conditions: purified EYA2 phosphatase activity, qHTS confirmation; activity change, negative = inhibition: at 46.1 µM (top of the series); further: nearly all actives have a fitted effect of over 65% in size;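 on activity change, negative = inhibition: 0% = DMSO wells and -100% = EGTA control giving full inhibition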
Summary of the method: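 Eya2 (0.2 uM working solution) preincubated 10 min at room temperature with compound in pH 7.5 HEPES buffer with MgCl2, BSA, DTT. OMFP added (50 uM working solution), 10 min more; fluorescence 485/525 nm, normalized to EGTA and DMSO.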
Potency means the concentration at half of the fitted maximal effect.

Structure (SMILES)	Potency	activity change, negative = inhibition
CCN(c1ccc(NC(=O)COC(=O)CCc2cc(OC)c(OC)c(OC)c2)cc1)C(C)C	inconclusive: 19 µM [inhibitor, partial curve]	–
CN(C)CCCN1c2ccc(O)cc2Sc2ccc(Cl)cc21	inconclusive: 13.5 µM [inhibitor, partial curve]	–
COc1ccccc1N1CCN(/N=C\c2ccccc2)CC1	inconclusive: 19 µM [inhibitor, partial curve]	–
COc1ccc(S(=O)(=O)c2c(O)c3ccc(C(=O)Nc4ccccc4F)cc3[nH]c2=O)cc1	inconclusive: 0.426 µM [inhibitor, full curve]	–
Nc1ccc(C=C2C=Cc3ccccc32)cc1	inconclusive: 16.9 µM [inhibitor, partial curve]	–
CO[C@@H]1[C@@H](OC(N)=O)[C@@H](O)C(Oc2ccc3c(O)c(NC(=O)c4ccc(O)c(CC=C(C)C)c4)c(=O)oc3c2C)OC1(C)C (some centres undefined)	inconclusive: 21.3 µM [inhibitor, partial curve]	–
CC(C)C[C@H]1CN(CCCC[C@@H]2CNC(=O)C(=O)N2CCc2ccccc2)C(=O)C(=O)N1CCc1ccc(O)cc1	inconclusive: 16.9 µM [inhibitor, single point]	–
CSC1=N/C(=C\C=C\c2cccs2)C(=O)S1	inconclusive: 16.9 µM [inhibitor, partial curve]	–
Cc1cc(C)c2nc(SCC(=O)N(C)C3CCS(=O)(=O)C3)cc(C)c2c1 (centres undefined)	–	inactive: 17.5%
S=c1[nH]nc(-c2ccccn2)n1/N=C/c1ccc(Br)s1	active: 16.9 µM	–
CCOC(=O)C1(Cc2ccc(Cl)cc2)CCN(C(C)Cc2ccc(O)c(OC)c2)CC1 (centres undefined)	inconclusive: 13.5 µM [inhibitor, partial curve]	–
O=C(COC(=O)c1cc(-c2cccnc2)nc2ccccc12)Nc1ccc(F)cc1F	–	inactive: -21.4%
CN(C)c1ccc2nc3ccc(=[N+](C)C)cc-3sc2c1	inconclusive: 4.26 µM [inhibitor, partial curve]	–
COc1ccc(NC(=O)c2cc(S(=O)(=O)N3CCc4ccccc43)cn2C)cc1OC	inconclusive: 19 µM [inhibitor, single point]	–
CCOc1cc(/C=C2/NC(=O)NC2=O)cc(Br)c1OCc1ccc(C(=O)O)cc1	active: 21.3 µM	–
CCOc1ccc(CCN2C(=O)C(=O)N([C@@H](Cc3ccccc3)CN3CCC[C@H]3CN3C(=O)C(=O)NC[C@@H]3Cc3ccccc3)C[C@@H]2Cc2ccccc2)cc1	inconclusive: 12 µM [inhibitor, partial curve]	–
O=C(Oc1cccc(Br)c1)c1cccnc1	inconclusive: 10.7 µM [inhibitor, partial curve]	–
COc1cc(NC(=O)c2cccc(S(=O)(=O)N3CCCCC3)c2)cc(OC)c1OC	inconclusive: 15.1 µM [inhibitor, single point]	–
COc1cc2nc(CN3CCN(S(=O)(=O)c4c(F)cccc4F)CC3)[nH]c(=O)c2cc1OC	inconclusive: 15.1 µM [inhibitor, partial curve]	–
CCOC(=O)C1=C(COC(=O)CCOc2ccccc2)NC(=O)NC1C (centres undefined)	–	inactive: -6.75%
COc1ccc(CC(CC(=O)O)C(=O)Nc2ccc(Cl)c(Cl)c2)cc1 (centres undefined)	–	inactive: 6.93%
Cc1ccc(O)c(C(=O)c2cnc3c(c2)COc2ccc(C)cc2-3)c1	inconclusive: 16.9 µM [inhibitor, partial curve]	–

Structure (SMILES)	Potency	activity change, negative = inhibition
C#Cc1cccc(NC(=O)CSc2nnc(-c3ccc(C(F)(F)F)cn3)o2)c1	active: 15.1 µM	–
COc1ccc(C(=O)/C=C/Nc2ccc(S(=O)(=O)Nc3nc(C)cc(C)n3)cc2)cc1OC	active: 13.5 µM	–
O=C1NC(=O)/C(=C\c2ccccc2OCc2cccc([N+](=O)[O-])c2)N1	–	inactive: -27.6%
CN(C)S(=O)(=O)c1cccc(-c2csc(=Nc3ccccc3)n2CCCN2CCOCC2)c1	inconclusive: 21.3 µM [inhibitor, partial curve]	–
CCOC(=O)N1CCN(C(=O)CSc2nc3c(cnn3-c3ccc(Cl)cc3)c(=O)[nH]2)CC1	inconclusive: 23.9 µM [inhibitor, partial curve]	–
OC(COc1ccc2cc(Br)ccc2c1)Cn1ccnc1 (centres undefined)	–	inactive: -19.8%
O=c1[nH]c2ccccc2c2cn(-c3ccccc3)nc12	inconclusive: 15.1 µM [inhibitor, partial curve]	–
COc1cc2c(cc1OC)/C(=C/C(=O)c1ccc(NC(C)=O)cc1)NCC2	inconclusive: 19 µM [inhibitor, partial curve]	–
CCn1cc(C(=O)O)c(=O)c2cc(F)c(N3CCN(C(=S)NC(=O)c4ccc(Br)cc4)CC3)cc21	inconclusive: 21.3 µM [inhibitor, partial curve]	–
CN=c1scc(C)n1/N=C/c1ccc2c(c1)OCO2	–	inactive: -29.4%
CCOC(=O)c1ncccc1NC(=O)CC(=O)Nc1cccnc1C(=O)OCC	active: 3.79 µM	–
COc1cccc(-c2nnc(SCC(=O)Nc3cc(C)on3)o2)c1	inconclusive: 13.5 µM [inhibitor, partial curve]	–
Cc1cccc(NC(=O)COC(=O)c2cccc3c2C(=O)c2ccccc2C3=O)c1C	inconclusive: 3.38 µM [inhibitor, full curve]	–
COc1ccc(NC(=O)CN(C)C(=O)c2cccc(-n3cccc3)c2)cc1	inconclusive: 15.1 µM [inhibitor, partial curve]	–
CCOC(=O)c1c(NC(=O)COC(=O)c2ccc(O)cc2)sc(C(=O)N(C)C)c1C	inconclusive: 16.9 µM [inhibitor, partial curve]	–
CCOC(=O)c1c(C)[nH]c(C)c1C(=O)COC(=O)CSc1ccc(C)cc1	inconclusive: 19 µM [inhibitor, partial curve]	–
Nc1ccc2c(c1)C(=O)c1cc(N)c(Cl)cc1-2	inconclusive: 8.49 µM [inhibitor, partial curve]	–
COc1ccc2c(CC(=O)OCC(=O)Nc3ccccc3[N+](=O)[O-])coc2c1	inconclusive: 15.1 µM [inhibitor, partial curve]	–
O=C1NC(=O)/C(=C\c2ccc(O)cc2O)S1	inconclusive: 12 µM [inhibitor, partial curve]	–
CCOC(=O)N1CCN(S(=O)(=O)c2ccc(C(=O)NNc3nc4ccc(Cl)cc4s3)cc2)CC1	–	inactive: -26.1%
Cc1ncc(CO)c2cc(C(=O)Nc3cccc(F)c3)c(=Nc3cccc(C(N)=O)c3)oc12	inconclusive: 2.69 µM [inhibitor, full curve]	–
O=C(NCCCO)c1ccc2nc(-c3ccco3)c(-c3ccco3)nc2c1	active: 9.53 µM	–

5 compounds from above, arranged by length of the SMILES, smallest number first.
Structure (SMILES)	Potency	activity change, negative = inhibition
O=C1NC(=O)/C(=C\c2ccc(O)cc2O)S1	inconclusive: 12 µM [inhibitor, partial curve]	–
COc1cccc(-c2nnc(SCC(=O)Nc3cc(C)on3)o2)c1	inconclusive: 13.5 µM [inhibitor, partial curve]	–
CCOC(=O)c1c(C)[nH]c(C)c1C(=O)COC(=O)CSc1ccc(C)cc1	inconclusive: 19 µM [inhibitor, partial curve]	–
CN(C)S(=O)(=O)c1cccc(-c2csc(=Nc3ccccc3)n2CCCN2CCOCC2)c1	inconclusive: 21.3 µM [inhibitor, partial curve]	–
CCOC(=O)N1CCN(C(=O)CSc2nc3c(cnn3-c3ccc(Cl)cc3)c(=O)[nH]2)CC1	inconclusive: 23.9 µM [inhibitor, partial curve]	–

Following part.

Structure (SMILES)	Potency	activity change, negative = inhibition
COc1ccc(F)cc1-c1cc(NC=O)c2ncc(-c3cccc(C(F)(F)F)c3)n2c1	–	inactive: -24.6%
Cc1ccc(-n2nnnc2C(=Cc2ccc(N(C)C)cc2)c2nnnn2-c2ccc(C)cc2)cc1	–	inactive: -11.3%
Cc1cccc(C2c3[nH]c4ccccc4c3CCN2Cc2cccn2-c2ncccn2)c1 (centres undefined)	inconclusive: 15.1 µM [inhibitor, single point]	–
CC1CCN(C2=C(NS(=O)(=O)c3ccc(Br)cc3)C(=O)c3ccccc3C2=O)CC1	active: 3.79 µM	–
O=C(Oc1ccc2ccc(=O)oc2c1)c1cccs1	inconclusive: 16.9 µM [inhibitor, partial curve]	–
COc1ccc(S(=O)(=O)c2c(O)c3ccc(C(=O)Nc4ccc(F)cc4)cc3[nH]c2=O)cc1	inconclusive: 2.13 µM [inhibitor, full curve]	–
CC1(CCc2ccc3c(c2)OCO3)NCCc2c1[nH]c1ccccc21 (centres undefined)	inconclusive: 19 µM [inhibitor, partial curve]	–
O=C(Oc1ccc(C(=S)N2CCOCC2)cc1)c1ccccc1[N+](=O)[O-]	active: 13.5 µM	–
Cc1ccc(OCC(=O)Nc2cc(NC(=O)COc3ccc(C)c(C)c3)cc(C(=O)O)c2)cc1C	inconclusive: 16.9 µM [inhibitor, partial curve]	–
CCOc1cc(/C=C2\C(=N)N3N=C(CC)SC3=NC2=O)ccc1OCCOc1ccc(NC(C)=O)cc1	inconclusive: 19 µM [inhibitor, partial curve]	–
O=C(COC(=O)c1cc(S(=O)(=O)N2CCOCC2)ccc1O)Nc1ccc2c(c1)OCO2	inconclusive: 16.9 µM [inhibitor, partial curve]	–
CCOC(=O)c1cnc2c(C#N)cnn2c1N	inconclusive: 8.49 µM [inhibitor, partial curve]	–
COc1ccc2[nH]c3c(c2c1)CCN1C(=O)N([C@@H](C)C(=O)NCCc2ccc(F)cc2)C(=O)[C@]31C	inconclusive: 19 µM [inhibitor, single point]	–
CC(C)OCCCNC(=O)c1ccccc1NC(=O)C1=CSCCO1	–	inactive: -8.43%
COc1cc(SC)ccc1C(=O)NCCc1c[nH]c2ccccc12	inconclusive: 23.9 µM [inhibitor, partial curve]	–
O=C(Nc1cc([N+](=O)[O-])ccc1O)c1cccc(C(=O)Nc2cc([N+](=O)[O-])ccc2O)c1	active: 3.79 µM	–
Cc1cn2c(nc(=O)c3cccnc32)s1	inconclusive: 13.5 µM [inhibitor, partial curve]	–
Cc1ccc(NC(=O)c2ccc3[nH]c(=O)c(=O)[nH]c3c2)nc1	inconclusive: 8.49 µM [inhibitor, partial curve]	–
COC(=O)CSc1nc2nc(-c3cccs3)cc(C(F)(F)F)c2c(=O)[nH]1	inconclusive: 19 µM [inhibitor, partial curve]	–
COc1ccc(-n2c(CN3CCN(c4ccccc4OC)CC3)nc3ccc([N+](=O)[O-])cc3c2=O)c(OC)c1	inconclusive: 3.38 µM [inhibitor, full curve]	–
